Source: paper PMC3419649
Results are given in words; binding and its absence hold for the method and conditions named. Binding seen in cells or lysates may run through a third protein. Some results given as binding are weak or reduced against the parent protein; the word gives no strength.

Protein sequences, listed by entry. Tags and fused reporters are not part of them.
UniProt Q63690: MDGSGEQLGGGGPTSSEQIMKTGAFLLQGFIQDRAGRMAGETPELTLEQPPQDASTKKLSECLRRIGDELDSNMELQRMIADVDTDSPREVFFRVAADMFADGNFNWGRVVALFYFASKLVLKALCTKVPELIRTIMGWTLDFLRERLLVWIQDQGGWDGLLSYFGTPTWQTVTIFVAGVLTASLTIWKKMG
UniProt P49950: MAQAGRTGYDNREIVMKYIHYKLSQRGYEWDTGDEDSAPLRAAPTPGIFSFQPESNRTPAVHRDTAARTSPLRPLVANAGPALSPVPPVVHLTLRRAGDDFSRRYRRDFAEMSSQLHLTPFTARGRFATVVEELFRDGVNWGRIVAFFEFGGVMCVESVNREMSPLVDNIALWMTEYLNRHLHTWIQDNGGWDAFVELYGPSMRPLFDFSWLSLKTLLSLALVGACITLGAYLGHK

Tests used:
[1] = molecular target: Bax (rat (endogenous in PC12)) (UniProt Q63690); assay: co-IP; endogenous proteins in PC12 protein extracts (M-PER) taken 0, 2, 4 and 8 hrs after 30 nM H2O2; Diva, Bcl2 or Bax antibody overnight at 4°C, Protein G Plus/Protein A agarose, 5 washes (10 mM Tris pH 7.4, 150 mM NaCl, 1% Triton X-100, EDTA, EGTA); western blot
[2] = molecular target: Bcl2 (rat (endogenous in PC12)) (UniProt P49950); assay: as above

B1: Diva (protein, UniProt Q99M66 1-185)
chain: MGDPLQDRTRRLLTDYILFCARAPNTPEPLPTSVEAALLRSVTSQIQQEHQDLFNSFRDYQGNRLELVTQMADELLSNDQEFNWGRLVMLLAFVGTLMNQDRTVKRRRDQRNRLLLERDCYLIVSLLYNRLTGRHRSWLEAHGGWDGFCQFFKNPLPPGFWRRLLIRAILSCFFATAIFYIWKCL
binding [1]: binds | binding [2]: binds
